# According to PubChem BioAssay AID624297 (National Center for Advancing Translational Sciences (NCATS), 2012):
# Out of some 340,000 compounds screened, about 6,200 (1.8%) were called active. The shares of active, inactive and inconclusive entries below differ from those in the screen. Calls come from the whole dose curve; as a rule, active = well fitted activation curve with a large enough effect; inconclusive = small, poorly fitted or top-dose-only effect; inactive = no such curve, though single readings can be large or run the other way. Where the call is inconclusive, the potency comes from a doubtful curve fit.
# Assay: A quantitative high throughput screen for small molecules that induce DNA re-replication in SW480 colon adenocarcinoma cells. For re-replication activation: % of control where 0% means no effect. Note: nearly all actives have a fitted effect of over 55% in size.
# Settings: Hoechst DNA content imaging, 48 h; re-replication activation: at 46.1 µM (top of the series) unless noted
# How it was run: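 Cells (250 per well) received 23 nL compound or DMSO by pin tool and were kept 48 hr at 37 C, 5% CO2. Nuclei were then stained with Hoechst for 40 min and scanned for DNA content.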
# Potency is the fitted concentration of half-maximal effect.
Structure (SMILES),re-replication activation,Potency
COc1ccc(S(=O)(=O)NCC2CCCN(Cc3cccc(C(C)=O)c3)C2)cc1 (stereo unspecified),inactive: -1.18%,
O=C(NC1CCCC1)C1CC(O)CN1C(=O)Nc1ccccc1 (stereo unspecified),inactive: -5.28%,
CC(C)(C)NC(=O)C(c1ccco1)N(C(=O)c1csnn1)c1ccccc1 (stereo unspecified),inactive: 1.55%,
COc1cc(C(C[N+](=O)[O-])c2c(C)cc3ccccn23)ccc1O (stereo unspecified),,"inconclusive: 18.4 µM [activator, single point]"
Cc1ccc(C(=O)N2CCC3(CC2)Oc2ccc(Cl)cc2C(=O)C32CC(c3ccccc3)=NO2)s1 (stereo unspecified),,"inconclusive: 32.6 µM [activator, single point]"
O=C(C[n+]1cc(-c2ccc(F)cc2)n2c1CCC2)N1c2ccccc2Sc2ccccc21,inactive: 22.7%,
OCCC1CN(Cc2ccsc2)CCN1C1CCCC1 (stereo unspecified),,"inconclusive: 2.91 µM [activator, single point]"
O=C(NN=Cc1ccccc1O)C(O)c1ccccc1 (stereo unspecified),,"inconclusive: 16.4 µM [activator, single point]"
C=CCn1c(CNc2ccccc2)nnc1SCC(=O)N/N=C/c1ccccc1O,,"inconclusive: 29.1 µM [activator, single point]"
Cc1cc(C(c2ccc(O)cc2)c2cc(C)c(O)cc2C)c(C)cc1O,,"inconclusive: 18.4 µM [activator, single point]"
CC(=O)N1CCN(C(=O)c2cc(S(=O)(=O)N(C)Cc3ccccc3)ccc2Cl)CC1,inactive: -3.15%,
CCSc1nnc(NC(=O)NC(C)(C(F)(F)F)C(F)(F)F)s1,,"inconclusive: 32.6 µM [activator, partial curve, poor fit]"
COc1cc2c(cc1C1NC(=S)NC(C)=C1C(N)=O)CCCC2 (stereo unspecified),,"inconclusive: 29.1 µM [activator, single point]"
C=CCNc1nc(-c2ccccc2)c(C(=O)OCC)cc1C#N,,"inconclusive: 18.4 µM [activator, single point]"
O=C(O)CC(=O)Nc1cc(Cl)ccc1O,inactive: 2.18%,
CCN(CC)c1ncn(Cc2c(Cl)cccc2Cl)c2ncnc1-2,,"inconclusive: 0.92 µM [activator, full curve, poor fit]"
CCC(=O)NC(c1cccs1)c1cc(Cl)c2cccnc2c1O (stereo unspecified),,"inconclusive: 6.51 µM [activator, single point]"
COc1cccc(C(=O)Nc2c(F)c(F)c(F)c(F)c2F)c1,inactive: -0.451%,
O=C(Cn1nc(C(F)(F)F)cc1C1CC1)NCc1ccccc1F,,"inconclusive: 13 µM [activator, partial curve, poor fit]"
BrC(/C=C\c1ccccc1)=N/Nc1nc(N2CCOCC2)nc(N2CCOCC2)n1,,"inconclusive: 29.1 µM [activator, single point]"
Cc1ccc(Cl)cc1N1CCN(S(=O)(=O)c2cc3c(cc2C)NC(=O)CO3)CC1,inactive: -17.2%,
Cn1c(N)c(S(=O)(=O)N2CCN(c3cccc(Cl)c3)CC2)c(=O)n(C)c1=O,,"inconclusive: 14.6 µM [activator, single point]"

Structure (SMILES),re-replication activation,Potency
CN(CC(=O)N1CCN(Cc2ccccc2)CC1)C(=O)Cc1cccc2ccccc12,inactive: 3.57%,
CCCOc1ccc2ccccc2c1/C=N/n1c(C)nnc1-n1nc(C)cc1C,,active: 20.6 µM
CN1CCN(NC(=O)c2cn(-c3ccccc3)nc2-c2cccs2)CC1,,"inconclusive: 14.6 µM [activator, single point]"
COc1cc2[nH]c(C(=O)Nc3ccc4c(c3)OCCO4)cc2c(OC)c1OC,inactive: -8.27%,
C=C(C)CNC(=S)NNC(=O)CCn1c2ccc(Cl)cc2c2cc(Cl)ccc21,,"inconclusive: 22.4 µM [activator, single point]"
COC(=O)C1C(O)=C(C=Nc2ccc3ccccc3c2)C(=O)CC1(C)C (stereo unspecified),,"inconclusive: 0.164 µM [activator, full curve, poor fit]"
NC1=NC(=Nc2ccc(Cl)cc2)c2ccccc21,inactive: -9.26%,
COC(=O)C1=C(C)N(Cc2ccccc2)C(=O)/C1=C\c1ccco1,,"inconclusive: 29.1 µM [activator, single point]"
O=C(CN1C(=O)NC2(CCCC2)C1=O)NC(c1ccccc1)c1ccccc1,,"inconclusive: 20.6 µM [activator, single point]"
CC1(c2ccccc2Cl)NC(=O)N(CC(=O)c2ccc3c(c2)OCO3)C1=O (stereo unspecified),,"inconclusive: 25.9 µM [activator, single point]"
CC(C)(C)OC(=O)C[C@@H]1C/C=C\C[C@@H](CC(=O)N(CCO)Cc2ccccc2)C(=O)N[C@H](C(C)(C)C)COC1=O,inactive: -15.6%,
N#CCCn1cc(/C=N/NC(N)=S)c(-c2ccccc2)n1,,"inconclusive: 29.1 µM [activator, single point]"
CCN(CC)c1ccc2cc(C(N)=O)/c(=N\NC(=O)c3ccncc3)oc2c1,,"inconclusive: 10.3 µM [activator, partial curve, poor fit]"
c1ccc2c(Nc3ccc(N4CCOCC4)cc3)nc(N3CCOCC3)nc2c1,,"inconclusive: 18.4 µM [activator, partial curve, poor fit]"
CC(C)Cn1c(=O)c(C(=O)Nc2ccncc2)c(O)c2ccccc21,,"inconclusive: 23.1 µM [activator, single point]"
CCOC(=O)c1c(C)[nH]c(C(=O)Cn2nnc(-c3ccc(Cl)cc3)n2)c1C,,"inconclusive: 32.6 µM [activator, partial curve, poor fit]"
COc1ccc(C2Nc3ccccc3C(=O)N2c2ccc(C)cc2)cc1Cn1cc([N+](=O)[O-])cn1 (stereo unspecified),,"inconclusive: 29.1 µM [activator, partial curve, poor fit]"
O=C(Nc1ccccn1)C1CCN(S(=O)(=O)c2ccccc2)CC1,inactive: -5.61%,
COc1ccc(N(CC(=O)Nc2ccccc2F)S(=O)(=O)c2ccc(OC)c(OC)c2)cc1,inactive: -39.8%,
CSc1nc(-c2ccc(Cl)cc2)nc(N)c1C#N,,"inconclusive: 0.731 µM [activator, full curve, poor fit]"
O=[N+]([O-])c1ccc(Sc2cccc3cccnc23)c2cccnc12,,"inconclusive: 2.31 µM [activator, partial curve, poor fit]"
CC1CCC(NC(=O)CN(C)CC(=O)Nc2ccc(F)cc2)CC1 (stereo unspecified),inactive: 1.07%,

Structure (SMILES),re-replication activation,Potency
CCN1C[C@@H]2[C@@H]3C(=O)N(C)C(=O)[C@@H]3[C@](Cc3ccccc3)(C(=O)OC)N2C1=NC1CCCCC1,,"inconclusive: 0.164 µM [activator, full curve, poor fit]"
OC(CNCCCCNCC(O)C(F)(F)F)C(F)(F)F (stereo unspecified),,"inconclusive: 32.6 µM [activator, partial curve, poor fit]"
CC(C)n1c(O)c(N=NC(=O)C2COc3ccccc3O2)c2ccccc21 (stereo unspecified),,"inconclusive: 20.6 µM [activator, single point]"
CCOc1ccc2nc(N(CCN(CC)CC)C(=O)c3cccc([N+](=O)[O-])c3)sc2c1,,"inconclusive: 29.1 µM [activator, single point]"
COc1ccc2c(C)nc(Nc3nc(-c4ccccc4)cc(=O)[nH]3)nc2c1,,active: 3.66 µM
COC(C(=O)Nc1ccnn1C1CCN(Cc2ccc(Cl)s2)CC1)c1ccccc1 (stereo unspecified),,"inconclusive: 29.1 µM [activator, single point]"
O=C(CN1C(=O)NC2(CCCCCC2)C1=O)c1ccc(Cl)s1,,"inconclusive: 29.1 µM [activator, partial curve, poor fit]"
Cc1ccccc1OCCCC(=O)Nc1nncs1,,"inconclusive: 32.6 µM [activator, single point]"
Nc1ccccc1C#Cc1ccc([N+](=O)[O-])cc1,,"inconclusive: 20.6 µM [activator, partial curve, poor fit]"
COc1ccc2nc(C)cc(N/N=C/c3cccc(OC)c3O)c2c1,,"inconclusive: 29.1 µM [activator, single point]"
O=C(CCc1nc2ccccc2s1)NCc1ccccc1F,,"inconclusive: 0.103 µM [activator, full curve, poor fit]"
COc1ccccc1N1CCN(C(=O)CCC(=O)N2CCN(c3ccc(F)cc3)CC2)CC1,,"inconclusive: 29.1 µM [activator, single point]"
Cc1cc(C)nc(SSc2nc(C)cc(C)n2)n1,,"inconclusive: 16.4 µM [activator, single point]"
COc1cc(C(=O)N/N=C(\C)c2ccccn2)cc(OC)c1OC,,active: 3.66 µM
CCCCNc1nc(Nc2ccc(C)c(Cl)c2)c2cnn(C)c2n1,,"inconclusive: 29.1 µM [activator, single point]"
CCn1nc(NC(=O)C(C)C)c2cc3ccc(C)cc3nc21,,"inconclusive: 25.9 µM [activator, partial curve, poor fit]"
O=C(Nc1ccccc1C(F)(F)F)N1CCN(C(c2ccccc2)c2ccccc2)CC1,,"inconclusive: 23.1 µM [activator, partial curve, poor fit]"
COC(=O)c1ccccc1NC(=O)Cn1c(-c2nonc2N)nc2ccccc21,,active: 0.316 µM
Cc1nn(-c2ccccc2)c(C)c1/C=N/NC(=O)c1cc(-c2ccccc2)n[nH]1,,"inconclusive: 5.8 µM [activator, partial curve, poor fit]"
CC#Cc1cc2c(cc1O)CCC1C2CCC2(C)C(O)CCC12 (stereo unspecified),,active: 9.2 µM
C=C1CCC[C@]2(C)C[C@H]3OC(=O)C(CNCCN(C)C)[C@H]3CC12 (stereo partly specified),,"inconclusive: 20.6 µM [activator, single point]"
CCCNC(=O)c1nc(C)n(-c2cc(Cl)ccc2Cl)n1,,"inconclusive: 18.4 µM [activator, single point]"

# By substructure: the entries above containing an NH in an aromatic ring (4)
Structure (SMILES),re-replication activation,Potency
COc1cc2[nH]c(C(=O)Nc3ccc4c(c3)OCCO4)cc2c(OC)c1OC,inactive: -8.27%,
CCOC(=O)c1c(C)[nH]c(C(=O)Cn2nnc(-c3ccc(Cl)cc3)n2)c1C,,"inconclusive: 32.6 µM [activator, partial curve, poor fit]"
COc1ccc2c(C)nc(Nc3nc(-c4ccccc4)cc(=O)[nH]3)nc2c1,,active: 3.66 µM
Cc1nn(-c2ccccc2)c(C)c1/C=N/NC(=O)c1cc(-c2ccccc2)n[nH]1,,"inconclusive: 5.8 µM [activator, partial curve, poor fit]"
